Source: PubChem BioAssay AID1671190 (National Center for Advancing Translational Sciences (NCATS), 2021)
Hit rate of the full screen: of about 580,000 compounds, about 6,100 (1.1%) were called active. The shares of active, inactive and inconclusive entries below differ from those in the screen. Calls come from the whole dose curve; as a rule, active = well fitted inhibition curve with a large enough effect; inconclusive = small, poorly fitted or top-dose-only effect, or another doubt; inactive = no such curve, though single readings can be large or run the other way. Where the call is inconclusive, the potency comes from a doubtful curve fit.

Sequences of proteins named here, by UniProt entry; tags and fusion partners are left off. A change or cut given only in a name is not applied to a line headed by its entry.
UniProt P18054: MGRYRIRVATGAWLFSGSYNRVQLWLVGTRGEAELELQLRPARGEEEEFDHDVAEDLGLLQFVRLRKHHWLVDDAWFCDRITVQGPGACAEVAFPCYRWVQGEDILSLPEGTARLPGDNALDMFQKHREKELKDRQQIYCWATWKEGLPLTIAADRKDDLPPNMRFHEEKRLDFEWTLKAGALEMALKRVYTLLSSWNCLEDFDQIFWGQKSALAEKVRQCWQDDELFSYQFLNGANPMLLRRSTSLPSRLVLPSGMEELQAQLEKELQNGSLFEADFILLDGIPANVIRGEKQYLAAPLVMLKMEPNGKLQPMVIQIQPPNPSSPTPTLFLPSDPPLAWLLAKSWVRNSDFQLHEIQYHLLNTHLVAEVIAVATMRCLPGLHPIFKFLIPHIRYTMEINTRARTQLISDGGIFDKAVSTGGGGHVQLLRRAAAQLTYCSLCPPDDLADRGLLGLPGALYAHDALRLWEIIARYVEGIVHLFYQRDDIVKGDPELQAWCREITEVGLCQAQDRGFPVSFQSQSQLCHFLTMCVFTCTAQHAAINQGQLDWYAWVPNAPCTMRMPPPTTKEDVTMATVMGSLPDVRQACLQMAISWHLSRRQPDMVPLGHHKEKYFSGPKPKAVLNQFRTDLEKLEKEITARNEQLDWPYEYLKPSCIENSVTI

Target: Polyunsaturated fatty acid lipoxygenase ALOX12 (Homo sapiens) (UniProt P18054)
Experiment: Primary qHTS assay for inhibitors of human arachidonate 12S-lipoxygenase (ALOX12): Round 2
Conditions: purified 12hLO, xylenol orange hydroperoxide absorbance; activity change, negative = inhibition: at 108 µM (top of the series) unless noted
How it was run: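 Purified human 12hLO at 150 nM in 25 mM Hepes, 0.01% Triton X-100, pH 7.0, preincubated 15 min at room temperature with compound. Reaction started with 40 uM arachidonic acid, 30 min at room temperature. Hydroperoxide measured by Fe-xylenol orange, 573/405 nm absorbance ratio.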
% is set by controls: 0 for no effect and ±100 for the full control effect; potency is the fitted concentration of half-maximal effect.

Row | Compound | Potency | activity change, negative = inhibition
1 | O=C(OCC(=O)c1c[nH]c2ccccc12)c1ccc2ccccc2n1 | inconclusive: 44.7 µM [inhibitor, partial curve, poor fit] | 
2 | COc1ccc(-n2nc(C(=O)NCC(=O)N3CC(C)CC(C)C3)c3ccccc3c2=O)cc1 (stereo not drawn) | inactive | 
3 | CCN(C(=O)c1cn(C)c(=O)c2cc(OC)c(OC)cc12)c1ccc(C)c(C)c1 | inactive | 
4 | CC(C)N(CC(N)=O)c1ncnc2sc(-c3ccccc3)cc12 | inconclusive: 141 µM [inhibitor, partial curve, poor fit] | 
5 | O=c1c2ccccc2nc(-c2ccccc2)n1O | inconclusive: 28.2 µM [inhibitor, partial curve, poor fit] | 
6 | CC(C)(C)NC(=O)NC(=O)CSc1ccc(S(=O)(=O)N2CCOCC2)cn1 | inconclusive: 6.31 µM [inhibitor, full curve, poor fit] | 
7 | CS(=O)(=O)c1ccc(Cl)c(NC(=O)CN2CCN(S(=O)(=O)/C=C/c3ccccc3)CC2)c1 | inactive | 
8 | COc1cc(C(=O)Nc2nnc(S(=O)(=O)N3CCCCCC3)s2)cc(OC)c1OC | inactive | 
9 | CN(C)c1ccc(/C=C2\N=C(c3ccc(Cl)c([N+](=O)[O-])c3)NC2=O)cc1 | inactive | 
10 | COc1cc(OC)cc(C(=O)Nc2ccc3oc(-c4ccccc4Cl)nc3c2)c1 | inconclusive: 126 µM [inhibitor, partial curve, poor fit] | 
11 | COC(=O)c1ccc(NC(=O)CCn2cnnn2)c(C)c1 | inactive | 
12 | CC(C)C1Cc2c(sc3[nH]c(=S)n(Cc4ccccc4)c(=O)c23)CO1 (stereo not drawn) | inconclusive: 3.55 µM [inhibitor, full curve] | 
13 | COc1ccc(/C=C/C(=O)c2c(OC)cc(O)cc2OC)cc1 | inactive | 
14 | O=C(NC1CC1)c1nc(-c2cccc(C(F)(F)F)c2)c2ccccn12 | inconclusive: 2.51 µM [inhibitor, full curve, poor fit] | 
15 | Cc1cc(O)c(C(c2ccccc2)N2CCN(c3ccc(F)cc3)CC2)c(=O)n1Cc1ccco1 (stereo not drawn) | inconclusive: 63.1 µM [inhibitor, partial curve, poor fit] | 
16 | COc1ccc(C)cc1S(=O)(=O)Nc1ccc(Nc2nc(C)cc(N3CCCC3)n2)cc1 | inconclusive: 50.1 µM [inhibitor, partial curve, poor fit] | 
17 | O=C(c1cnccn1)N1C[C@@H]2OCC(=O)N(CC3CCCCC3)[C@@H]2C1 | inconclusive: 20 µM [inhibitor, full curve] | 
18 | CCOc1ccc(-c2noc(-c3nc(-c4ccncc4)no3)n2)cc1 | inconclusive: 89.1 µM [inhibitor, partial curve, poor fit] | 
19 | CNC(=O)/C(=C/c1ccc2c(c1)OCO2)NC(=O)c1ccc(Br)cc1 | inconclusive: 44.7 µM [inhibitor, partial curve, poor fit] | 
20 | Cc1ccc(-c2noc(CNc3ccccc3F)n2)cc1 | inactive | 
21 | COc1ccc(-c2cc(CNS(=O)(=O)c3ccccc3)on2)cc1 | inactive | 
22 | CC(C)c1ccc(NC(=O)C2CCCN(c3cnc4ccccc4n3)C2)cc1 (stereo not drawn) | inconclusive: 89.1 µM [inhibitor, single point] | 
23 | Cn1c(Cc2c[nH]c3ccccc23)n[nH]c1=S | inconclusive: 11.2 µM [inhibitor, full curve, poor fit] | 
24 | Cc1cccc(CNc2ncnc3ccc(-c4c(C)noc4C)cc23)c1 | inconclusive: 79.4 µM [inhibitor, partial curve, poor fit] | 
25 | CCOc1ccccc1NC(=O)N(CC)Cc1cc(=O)[nH]c2c(C)cc(C)cc12 | inactive | 

Among those listed so far, these have a thiophene ring, fused or not:
Row | Compound | Potency | activity change, negative = inhibition
4 | CC(C)N(CC(N)=O)c1ncnc2sc(-c3ccccc3)cc12 | inconclusive: 141 µM [inhibitor, partial curve, poor fit] | 
12 | CC(C)C1Cc2c(sc3[nH]c(=S)n(Cc4ccccc4)c(=O)c23)CO1 (stereo not drawn) | inconclusive: 3.55 µM [inhibitor, full curve] | 

Arranged by number of heavy atoms (rising): three of the compounds above.
Row | Compound | Potency | activity change, negative = inhibition
23 | Cn1c(Cc2c[nH]c3ccccc23)n[nH]c1=S | inconclusive: 11.2 µM [inhibitor, full curve, poor fit] | 
13 | COc1ccc(/C=C/C(=O)c2c(OC)cc(O)cc2OC)cc1 | inactive | 
7 | CS(=O)(=O)c1ccc(Cl)c(NC(=O)CN2CCN(S(=O)(=O)/C=C/c3ccccc3)CC2)c1 | inactive | 

Continued:

Row | Compound | Potency | activity change, negative = inhibition
26 | Cc1cscc1NC(=O)/C=C/C(=O)O | inconclusive: 79.4 µM [inhibitor, partial curve, poor fit] | 
27 | O=C(CCc1ccco1)NCC1CC1 | inactive | 
28 | CCOC(=O)c1nc(NC(C)c2ccccc2)c2ccccc2n1 (stereo not drawn) |  | inconclusive: -42.1% [inhibitor]
29 | Cc1cc(C(=O)CCl)c(C)n1-c1c(C)n(C)n(-c2ccccc2)c1=O | inconclusive: 56.2 µM [inhibitor, partial curve, poor fit] | 
30 | CCc1ccc(C(=O)CC2(O)C(=O)N(Cc3ccc(C)cc3)c3ccccc32)cc1 (stereo not drawn) | inconclusive: 7.08 µM [inhibitor, full curve] | 
31 | COc1cccc(-c2nccn2C2COC3(CCCC3)C2)c1OC (stereo not drawn) | inactive | 
32 | CCN1C(=O)/C(=C/N2CC(C)CC(C)C2)SC1=S (stereo not drawn) | inactive | 
33 | O=C(Cc1ccc(F)cc1)N1CCC(c2nn(-c3ccc(Cl)cc3)c(=O)[nH]2)CC1 | active: 28.2 µM | 
34 | CC(C)c1nc2ccc(C(=O)NCc3ccccc3Br)cc2o1 | inactive | 
35 | CCc1ccccc1NC(=O)c1cc2nc(-c3ccc(Br)cc3)cc(C(F)(F)F)n2n1 | inconclusive: 50.1 µM [inhibitor, partial curve, poor fit] | 
36 | CC(NS(=O)(=O)c1ccccc1Cl)C1CC2CCC1C2 (stereo not drawn) | inactive | 
37 | CC(C)OCCCN1C(=O)c2[nH]nc(-c3ccccc3O)c2C1c1ccccc1F (stereo not drawn) | inactive | 
38 | Cn1nnc(NC(=S)NC(=O)c2cccc3ccccc23)n1 | active: 0.631 µM | 
39 | COc1ccc(C(=O)NCC2(c3ccccc3)CCOCC2)cc1[N+](=O)[O-] | inactive | 
40 | CSC1=N/C(=C\C=C\c2ccco2)C(=O)S1 | active: 3.16 µM | 
41 | O=C(NCC1CCN(Cc2cccc(Cl)c2)CC1)Nc1ccc(F)c(Cl)c1 | inconclusive: 63.1 µM [inhibitor, partial curve, poor fit] | 
42 | CC(C)c1ccc(S(=O)(=O)N2CCN(C(=O)n3ccnc3)CC2)cc1 | inconclusive: 126 µM [inhibitor, single point] | 
43 | CN(Cc1ccc(-c2ccccc2)cc1)C(=O)Cc1ccc(F)cc1 | inactive | 
44 | O=C(COC(=O)c1ccc2ccccc2c1O)NCC(F)(F)F | inactive | 
45 | CC(C)(Oc1ccc(Cl)cc1)C(=O)OCCCOC(=O)C(C)(C)Oc1ccc(Cl)cc1 |  | inactive: -14.1% [at 22.9 µM]
46 | Cc1cccc(-c2cc(C(=O)N/N=C/c3cccnc3)c3ccccc3n2)c1 | inactive | 
47 | O=[S+]([O-])(c1cccs1)N1CC(Oc2ccc3c(c2)OCO3)C1 | inconclusive: 56.2 µM [inhibitor, partial curve, poor fit] | 
48 | Cc1cccc(N2CC(C(=O)Nc3nnc(SCC(=O)NCC4CCCO4)s3)CC2=O)c1 (stereo not drawn) | inconclusive: 10 µM [inhibitor, full curve, poor fit] | 
49 | Cc1ccc(S(=O)(=O)Nc2cc(Cl)c3oc4c(c3c2)CCCC4)cc1 | inconclusive: 50.1 µM [inhibitor, single point] | 
50 | O=C1CCCCc2cc(O)c(O)cc21 | inconclusive: 17.8 µM [inhibitor, full curve, poor fit] | 

Row | Compound | Potency | activity change, negative = inhibition
51 | CCOc1ccc(CNC(=O)CSc2c3c(nc4cc(Cl)ccc24)CCCC3)cc1 | inactive | 
52 | CCOC(=O)C1(CCOc2ccccc2)CCN(Cc2ccc(-n3cccn3)cc2)CC1 | inactive | 
53 | COc1ccc(NS(=O)(=O)c2ccc3c(c2)CCC(=O)N3)cc1O | inactive | 
54 | CCN(CC(=O)NCc1cccs1)C(=O)c1cccc(S(=O)(=O)N(CC)c2ccccc2)c1 | inactive | 
55 | O=C(CSc1ncnc2ccccc12)Nc1c(Cl)cccc1Cl | inconclusive: 10 µM [inhibitor, partial curve, poor fit] | 
56 | COc1ccc(C(=O)NC(c2ccccc2Cl)c2cc(Cl)c3cccnc3c2O)cc1 (stereo not drawn) | inactive | 
57 | CC(NC(=O)c1ccco1)c1ccccc1OC(F)F (stereo not drawn) | inactive | 
58 | Cc1c(C)n(Cc2ccccc2)c2ccc(C(=O)N3CCN(c4ccccc4)CC3)cc12 | inconclusive: 126 µM [inhibitor, partial curve, poor fit] | 
59 | O=C(O)/C=C/C(=O)Nc1ccc(Oc2ccccc2)cc1 | inconclusive: 50.1 µM [inhibitor, partial curve, poor fit] | 
60 | CN(Cc1ccc2ncccc2c1)C(=O)c1ccc(C2CCNC2)cc1 (stereo not drawn) | inactive | 
61 | NC(CSC(c1ccccc1)(c1ccccc1)c1ccccc1)C(=O)O (stereo not drawn) | inconclusive: 44.7 µM [inhibitor, partial curve, poor fit] | 
62 | O=C(Cc1cccc2cccnc12)NCc1ccccc1 | inconclusive: 7.94 µM [inhibitor, partial curve, poor fit] | 
63 | COc1cc2c(cc1OC)CN(C(=O)c1sc3cccc(F)c3c1C)CC2 | inconclusive: 79.4 µM [inhibitor, single point] | 
64 | CC(=O)NC12CC3CC(C1)CC(C(=O)NCc1ccc(C(=O)N4CCCCC4)cc1)(C3)C2 | inactive | 
65 | O=C(CSc1ncccc1C(=O)O)Nc1ccc2c(c1)OCCO2 | inconclusive: 100 µM [inhibitor, partial curve, poor fit] | 
66 | O=C(NCCc1ccccc1)c1ccc(-c2ccc(F)c(F)c2)c2ccoc12 | inactive | 
67 | O=c1c2ccccc2c(C=Nc2ccccc2O)c(O)n1-c1nccs1 | inactive | 
68 | CCc1cc(CNC(=O)c2ccc3nc(Cc4ccc(OC)c(OC)c4)oc3c2)on1 | inactive | 
69 | CC[C@]12c3[nH]c4cc(-c5ccco5)ccc4c3CCN1C(=O)[C@@H](CC(=O)NCc1ccco1)C[C@@H]2C(=O)N1CCN(C(=O)c2ccco2)CC1 | inconclusive: 63.1 µM [inhibitor, partial curve, poor fit] | 
70 | O=C(Nc1nc2ccc(F)cc2s1)c1ccccn1 | inactive | 
71 | O=C(Nc1ccc2c(c1)OCO2)c1cc(=O)c(OCc2ccccc2F)co1 | inactive | 
72 | CN(Cc1ccco1)c1cc(-c2cccnc2)ncn1 | inconclusive: 2 µM [inhibitor, full curve] | 
73 | CC(C)(CC(=O)O)CC(=O)N[C@H]1C[C@H]2C(=O)Nc3ccccc3C(=O)N2C1 | inconclusive: 39.8 µM [inhibitor, full curve, poor fit] | 
